Measured values from article PMC11768549, “Optimization of Toxicity, Biodegradability, and Skin Irritation in Formulations Containing Mixtures of Anionic and Nonionic Surfactants Combined with Silica Nanoparticles” (Toxics, 2025).
“And” between values parts separate entries of the source, which are not always exact repeats. Identical values can stand only once.

Assay: Static biodegradation test (OECD 301E), DOC removal
Conditions: 28 days, initial 25 mg·L^−1, aerobic, dark
Description: The static biodegradation tests were conducted according to the OECD 301E guidelines, which focus on the removal of organic compounds measured as dissolved organic carbon (DOC). Solutions of the surfactant and surfactant–co-surfactant mixtures, serving as the sole carbon source for microorganisms, were tested in a mineral medium inoculated and incubated under aerobic conditions in the dark for 28 days. The initial concentration of the test substance for surfactant and surfactant–co-surfactant mixtures was set at 25 mg·L^−1.
The surfactant solution, for which biodegradability was to be determined, was inoculated with 0.5 mL of water from the secondary treatment stage of a sewage treatment plant (STP) operating with activated sludge (plus code: 597G+W2, Granada, Spain). The biodegradation process was monitored by measuring the residual surfactant concentration over time through DOC determinations in samples, filtered through a 0.45 µm Millipore membrane, using the total organic carbon (TOC) analyser Shimadzu VCSH/CSH (Shimadzu Co., Kyoto, Japan). Reference assays were performed with an easily biodegradable surfactant (linear alkylbenzene sulfonate) to determine the activity of the microbial population present in the test medium. […] All samples were tested in duplicate. The experimental setup included two flasks for the blank, two for the reference surfactant, two for the abiotic assay, and two for each of the surfactant concentrations tested.
The biodegradation of surfactants and their binary mixtures was assessed under aerobic conditions following the OECD 301E guidelines for ready biodegradability. The process was tracked by measuring the dissolved organic carbon (DOC) in the samples over time. […] Abiotic control tests, using HgCl2 to inhibit biological activity, confirmed that surfactant concentrations remained at nearly 100% throughout the degradation period. […] Figure 1 illustrates the progression of ultimate biodegradation of the surfactants and binary mixtures over the testing period. The assays were initiated with surfactant concentrations of 25 mg·L^−1.
To compare and quantify the biodegradation test, two key parameters of the biodegradation profiles were defined and analysed: (a) Half-life (t1/2) is the time required for the substrate concentration to decrease by 50% from the start of the biodegradation process. This value is determined using graphical methods based on the biodegradation curve. (b) Surfactant biodegradability (B) is defined as the percentage of surfactant that is biodegraded after 50 h of assay. Half-time and surfactant biodegradability results are shown in Table 5, together with mineralization values obtained using Equation (11).(11) Mineralization (%)=DOCi− [DOC]f/ [DOC]i·100 where […]

Substance | % Mineralization
Capryleth-6 Carboxylic Acid [EC-R8E5] | 71.20% and 71.20 ± 4.32%
Laureth-4 Carboxylic Acid [EC-R12–14E3] | 57.35% and 57.35 ± 2.80%
Laureth-11 Carboxylic Acid [EC-R12–14E10] | 69.35 ± 3.21%
Laureth-11/Myreth-11 [FAE-R12–14E11] | 61.30 ± 2.60%
